These are yes or no findings as the source states them, for the method shown. In cells and extracts the contact can be indirect. A yes stands for co-enrichment or nearness to the bait. Other partners may have been found. No binding means not detected with the bait. Where a sequence is shown, tags or fusion partners need not be part of it.

Amino acid sequences for entries named in this document (tags omitted).
UniProt Q6A078: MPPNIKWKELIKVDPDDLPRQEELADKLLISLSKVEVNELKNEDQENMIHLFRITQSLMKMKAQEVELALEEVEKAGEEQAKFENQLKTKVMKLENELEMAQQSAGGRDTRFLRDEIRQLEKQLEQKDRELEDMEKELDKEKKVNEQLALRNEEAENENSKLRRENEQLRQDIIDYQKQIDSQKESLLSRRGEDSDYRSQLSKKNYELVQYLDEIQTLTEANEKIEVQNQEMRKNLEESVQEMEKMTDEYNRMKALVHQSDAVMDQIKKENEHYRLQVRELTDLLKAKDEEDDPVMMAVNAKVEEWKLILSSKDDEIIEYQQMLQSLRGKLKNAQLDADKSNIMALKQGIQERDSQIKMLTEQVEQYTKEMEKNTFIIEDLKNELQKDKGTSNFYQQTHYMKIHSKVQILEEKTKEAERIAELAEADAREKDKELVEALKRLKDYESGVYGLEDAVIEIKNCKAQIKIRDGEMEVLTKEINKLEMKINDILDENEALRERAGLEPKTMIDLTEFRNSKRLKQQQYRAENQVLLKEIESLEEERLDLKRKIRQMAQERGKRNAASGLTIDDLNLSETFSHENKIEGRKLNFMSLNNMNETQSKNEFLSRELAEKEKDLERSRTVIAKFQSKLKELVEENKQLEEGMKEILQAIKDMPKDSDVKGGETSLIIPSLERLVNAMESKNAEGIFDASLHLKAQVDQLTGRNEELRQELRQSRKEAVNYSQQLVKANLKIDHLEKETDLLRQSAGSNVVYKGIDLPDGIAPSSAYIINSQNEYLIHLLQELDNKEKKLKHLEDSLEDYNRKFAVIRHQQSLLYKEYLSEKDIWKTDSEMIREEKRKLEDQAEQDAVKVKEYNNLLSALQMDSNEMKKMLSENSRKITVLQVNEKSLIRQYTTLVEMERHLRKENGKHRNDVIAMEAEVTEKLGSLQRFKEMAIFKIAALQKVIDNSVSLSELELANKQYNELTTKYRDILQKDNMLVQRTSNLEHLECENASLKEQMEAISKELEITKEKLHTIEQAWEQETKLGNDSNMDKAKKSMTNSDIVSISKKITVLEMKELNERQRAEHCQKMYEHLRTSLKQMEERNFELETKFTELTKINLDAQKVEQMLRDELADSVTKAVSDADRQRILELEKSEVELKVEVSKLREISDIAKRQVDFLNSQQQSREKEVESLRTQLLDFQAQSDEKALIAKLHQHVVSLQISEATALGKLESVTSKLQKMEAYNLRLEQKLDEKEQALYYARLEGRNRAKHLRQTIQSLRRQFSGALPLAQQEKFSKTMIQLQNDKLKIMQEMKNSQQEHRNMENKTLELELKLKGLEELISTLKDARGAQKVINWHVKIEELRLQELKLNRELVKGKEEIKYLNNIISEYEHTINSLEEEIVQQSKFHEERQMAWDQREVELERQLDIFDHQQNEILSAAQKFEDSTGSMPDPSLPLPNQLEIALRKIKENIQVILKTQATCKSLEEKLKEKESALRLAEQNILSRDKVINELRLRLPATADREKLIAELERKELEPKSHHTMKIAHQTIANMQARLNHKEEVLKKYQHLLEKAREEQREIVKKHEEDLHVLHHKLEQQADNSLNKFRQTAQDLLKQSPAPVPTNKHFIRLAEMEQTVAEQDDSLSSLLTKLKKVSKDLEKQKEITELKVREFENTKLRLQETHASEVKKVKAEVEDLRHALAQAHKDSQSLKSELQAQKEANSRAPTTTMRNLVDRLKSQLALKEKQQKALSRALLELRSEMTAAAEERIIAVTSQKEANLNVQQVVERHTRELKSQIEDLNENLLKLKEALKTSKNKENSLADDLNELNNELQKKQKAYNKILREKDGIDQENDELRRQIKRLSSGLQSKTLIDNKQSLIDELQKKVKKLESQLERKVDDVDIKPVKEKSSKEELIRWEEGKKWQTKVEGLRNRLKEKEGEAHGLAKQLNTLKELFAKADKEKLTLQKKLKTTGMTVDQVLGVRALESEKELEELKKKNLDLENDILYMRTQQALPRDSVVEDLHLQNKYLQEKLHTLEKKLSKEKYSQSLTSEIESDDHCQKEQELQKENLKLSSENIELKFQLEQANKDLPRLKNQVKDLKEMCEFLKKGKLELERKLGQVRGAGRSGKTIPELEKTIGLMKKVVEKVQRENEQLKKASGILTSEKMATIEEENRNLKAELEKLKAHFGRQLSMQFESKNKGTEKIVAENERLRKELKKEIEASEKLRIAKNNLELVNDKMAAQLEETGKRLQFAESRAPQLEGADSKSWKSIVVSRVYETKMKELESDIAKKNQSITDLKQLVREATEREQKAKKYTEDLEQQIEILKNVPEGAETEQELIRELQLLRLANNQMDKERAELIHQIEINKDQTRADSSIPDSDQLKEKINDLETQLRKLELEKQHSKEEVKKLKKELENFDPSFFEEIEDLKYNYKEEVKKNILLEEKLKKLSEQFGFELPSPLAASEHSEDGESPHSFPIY
UniProt Q6A070: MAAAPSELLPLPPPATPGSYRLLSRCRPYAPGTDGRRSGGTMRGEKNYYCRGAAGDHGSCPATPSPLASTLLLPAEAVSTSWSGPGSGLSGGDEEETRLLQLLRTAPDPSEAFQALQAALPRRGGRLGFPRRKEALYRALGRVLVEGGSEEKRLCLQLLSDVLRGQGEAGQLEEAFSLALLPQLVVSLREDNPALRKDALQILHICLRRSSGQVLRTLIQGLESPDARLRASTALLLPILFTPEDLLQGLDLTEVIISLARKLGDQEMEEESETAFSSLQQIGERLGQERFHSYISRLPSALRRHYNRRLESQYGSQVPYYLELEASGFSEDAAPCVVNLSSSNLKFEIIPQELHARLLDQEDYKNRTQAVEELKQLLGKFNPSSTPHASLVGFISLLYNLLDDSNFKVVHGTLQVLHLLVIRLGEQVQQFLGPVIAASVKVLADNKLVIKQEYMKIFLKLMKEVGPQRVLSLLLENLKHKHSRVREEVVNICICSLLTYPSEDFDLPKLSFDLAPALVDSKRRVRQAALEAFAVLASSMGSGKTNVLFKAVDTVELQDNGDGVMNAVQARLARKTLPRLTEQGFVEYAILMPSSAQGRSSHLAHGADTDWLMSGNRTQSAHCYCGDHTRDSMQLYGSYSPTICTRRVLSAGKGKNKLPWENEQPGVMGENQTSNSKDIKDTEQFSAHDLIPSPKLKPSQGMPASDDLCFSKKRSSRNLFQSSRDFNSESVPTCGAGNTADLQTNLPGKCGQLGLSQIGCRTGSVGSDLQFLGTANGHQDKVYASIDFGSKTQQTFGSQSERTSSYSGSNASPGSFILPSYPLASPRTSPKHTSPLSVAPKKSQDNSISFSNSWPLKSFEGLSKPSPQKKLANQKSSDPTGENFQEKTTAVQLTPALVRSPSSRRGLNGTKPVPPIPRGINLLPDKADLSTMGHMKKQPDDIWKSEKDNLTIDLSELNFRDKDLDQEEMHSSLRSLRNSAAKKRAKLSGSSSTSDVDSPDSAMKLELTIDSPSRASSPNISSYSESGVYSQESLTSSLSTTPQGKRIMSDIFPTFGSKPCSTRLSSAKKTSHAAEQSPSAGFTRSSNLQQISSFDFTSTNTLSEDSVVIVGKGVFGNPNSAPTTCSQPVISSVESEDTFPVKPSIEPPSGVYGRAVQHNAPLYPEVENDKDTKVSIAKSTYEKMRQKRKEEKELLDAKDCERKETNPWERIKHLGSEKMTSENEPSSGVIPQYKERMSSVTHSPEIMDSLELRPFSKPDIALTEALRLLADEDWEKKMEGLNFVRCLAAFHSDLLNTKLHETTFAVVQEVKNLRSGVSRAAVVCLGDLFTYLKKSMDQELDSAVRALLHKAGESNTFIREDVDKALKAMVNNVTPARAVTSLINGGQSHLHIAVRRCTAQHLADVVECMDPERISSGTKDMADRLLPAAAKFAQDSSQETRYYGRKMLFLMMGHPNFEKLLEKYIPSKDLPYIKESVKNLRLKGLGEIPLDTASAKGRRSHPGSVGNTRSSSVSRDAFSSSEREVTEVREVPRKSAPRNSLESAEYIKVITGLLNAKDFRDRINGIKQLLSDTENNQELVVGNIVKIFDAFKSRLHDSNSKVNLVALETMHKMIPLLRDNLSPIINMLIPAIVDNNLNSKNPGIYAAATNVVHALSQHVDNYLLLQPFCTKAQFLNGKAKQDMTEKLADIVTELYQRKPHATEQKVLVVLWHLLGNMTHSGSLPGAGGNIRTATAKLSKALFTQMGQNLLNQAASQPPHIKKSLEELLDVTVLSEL
UniProt Q8CG73: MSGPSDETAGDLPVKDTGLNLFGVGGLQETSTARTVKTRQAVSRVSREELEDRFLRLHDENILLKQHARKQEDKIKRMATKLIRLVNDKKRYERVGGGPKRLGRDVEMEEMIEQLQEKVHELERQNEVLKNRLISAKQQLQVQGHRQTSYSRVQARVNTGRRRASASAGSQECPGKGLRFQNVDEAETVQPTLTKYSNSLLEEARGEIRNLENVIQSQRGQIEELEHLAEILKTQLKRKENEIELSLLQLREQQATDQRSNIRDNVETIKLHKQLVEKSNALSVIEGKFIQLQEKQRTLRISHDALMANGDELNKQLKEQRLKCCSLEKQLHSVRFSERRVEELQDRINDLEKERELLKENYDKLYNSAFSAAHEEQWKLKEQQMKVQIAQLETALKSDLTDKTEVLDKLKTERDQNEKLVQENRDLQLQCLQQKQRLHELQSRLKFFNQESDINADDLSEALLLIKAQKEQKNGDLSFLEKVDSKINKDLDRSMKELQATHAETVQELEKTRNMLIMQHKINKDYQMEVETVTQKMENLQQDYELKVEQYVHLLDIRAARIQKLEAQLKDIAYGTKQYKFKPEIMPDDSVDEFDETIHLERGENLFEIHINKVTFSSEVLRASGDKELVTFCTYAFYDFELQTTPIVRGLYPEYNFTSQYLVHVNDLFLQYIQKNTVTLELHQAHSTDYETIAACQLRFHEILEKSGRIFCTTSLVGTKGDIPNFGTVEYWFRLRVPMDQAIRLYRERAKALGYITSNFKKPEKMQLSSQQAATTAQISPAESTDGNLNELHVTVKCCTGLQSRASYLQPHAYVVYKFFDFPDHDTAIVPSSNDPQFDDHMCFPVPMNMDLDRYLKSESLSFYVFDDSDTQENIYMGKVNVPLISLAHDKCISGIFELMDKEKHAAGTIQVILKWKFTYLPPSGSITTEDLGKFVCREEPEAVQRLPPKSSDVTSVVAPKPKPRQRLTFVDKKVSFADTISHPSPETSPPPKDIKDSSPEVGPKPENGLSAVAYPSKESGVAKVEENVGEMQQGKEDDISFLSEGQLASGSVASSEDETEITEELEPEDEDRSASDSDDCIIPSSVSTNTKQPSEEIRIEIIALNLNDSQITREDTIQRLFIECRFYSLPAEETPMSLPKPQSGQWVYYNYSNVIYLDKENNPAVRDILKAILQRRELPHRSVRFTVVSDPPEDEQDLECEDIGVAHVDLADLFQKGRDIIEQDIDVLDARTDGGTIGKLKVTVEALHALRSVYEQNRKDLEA

For the assay, the target named is T1, FLAG-miniTurbo-CCDC66 (UniProt A2RUB6).
T1 sequence: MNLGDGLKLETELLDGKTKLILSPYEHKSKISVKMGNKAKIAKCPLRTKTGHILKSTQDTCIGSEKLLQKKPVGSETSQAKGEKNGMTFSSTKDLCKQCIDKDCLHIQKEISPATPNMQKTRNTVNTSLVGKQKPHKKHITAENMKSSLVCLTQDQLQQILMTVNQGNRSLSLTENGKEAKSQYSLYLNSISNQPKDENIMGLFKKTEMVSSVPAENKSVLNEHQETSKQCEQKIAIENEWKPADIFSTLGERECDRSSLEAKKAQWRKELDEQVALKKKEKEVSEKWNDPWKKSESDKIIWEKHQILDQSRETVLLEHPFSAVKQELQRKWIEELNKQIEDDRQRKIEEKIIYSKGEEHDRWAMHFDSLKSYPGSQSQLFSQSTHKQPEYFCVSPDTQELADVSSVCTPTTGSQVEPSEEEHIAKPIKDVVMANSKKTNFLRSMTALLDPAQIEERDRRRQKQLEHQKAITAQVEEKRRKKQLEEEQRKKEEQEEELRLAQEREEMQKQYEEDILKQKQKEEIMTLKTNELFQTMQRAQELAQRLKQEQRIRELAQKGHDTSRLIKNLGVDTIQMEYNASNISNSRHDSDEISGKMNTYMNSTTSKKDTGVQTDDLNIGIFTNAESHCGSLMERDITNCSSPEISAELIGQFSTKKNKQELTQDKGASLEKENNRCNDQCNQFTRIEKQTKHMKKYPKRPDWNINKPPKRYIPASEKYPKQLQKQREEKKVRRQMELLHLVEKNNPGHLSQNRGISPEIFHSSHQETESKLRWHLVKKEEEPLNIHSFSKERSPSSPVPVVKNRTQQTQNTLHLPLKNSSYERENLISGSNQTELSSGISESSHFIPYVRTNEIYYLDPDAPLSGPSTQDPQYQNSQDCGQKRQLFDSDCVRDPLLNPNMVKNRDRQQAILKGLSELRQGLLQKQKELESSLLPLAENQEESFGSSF
The assay can be described thus: proximity labelling.

Regarding “CEP290 (IMCD3 cells) (from UniProt Q6A078 1-2472)”, the binding entry was “no binding”.
Regarding “TOGARAM1 (IMCD3 cells) (from UniProt Q6A070 1-1776)”, the binding entry is on record as “binds”.
With “RPGRIP1L (IMCD3 cells) (from UniProt Q8CG73 1-1264)”, the binding result was “binds”.

B1: CSPP1 (IMCD3 cells) (protein, UniProt B2RX88 1-1205)
chain: MADSLDEFIEEQKAKLAKDKAELESDPPYMEMKGKASEKLSENSKILISMAKENIPPSSQQQPKGPLGIEYGLSLPLGEDYEQKKHKLKEELRQDYRRYLTQGITQAKRKKNFLSTGETDPSTLGVSLPIDERLSAKERLKLERNREYNQFLRGKAESTEKVRQVEKNIEPKSQRNKNPISQGKSDLPLQIQTAYTHSEGPWLSRQEEGLYRQLDGEIELRSRRPLKQTKEEVGISGAEHPSLSGSAGVPERRARRANGERVLDRQHCRADRDPGVSEDMDERFRFESDFDRRLLRVYTNGRPHGSRRGYVDGDDVPEEPNTQISAAENKSVHCNGPPRSADLDITSPFAGMLFGGEDRELTKRRKEKYRQELLEQIAEQQKKKRREKDLAFGITTSGVQDPEKSPDRLKQFSLTPRHFEEMPPERPRVAFQTPPPPFSAPSSPSVPPVHSAPSHNEDLHSGLGSTLGELAHPRVLPVPLNPPPPPLLAPPASNYRTPYDDAYYFYGARNTLDPNIVYYGSGMIGGQPAPHVSAPVTHQVAPPAVNTVGQNEQKVLSDGLRNSGLVFEDKPKPSTQSLQSYQEALQEQIREREARRKKERLEKEEYEAKLEAEMRIYNPWGKGGGGAPLRDAKGNLITDLNRMHRQNIDAYHNPDARTYEDKRAVVSIDQNLATSNAENLEDSANKNSGPLQTQSSPFARGNTFGEPLSELQIKQQELYKNFLRFQIEEKRQREEAEREKLRVAEEKEEKRLAEQRARIQQEYEEEQERRREKEEEQRLKNEELIRLAEERRKEAERKKKEEEEKHNLQLQHYYERENIIGDETKHLRQPSPVVPALQNKIASKLQRPPSVDTIISSFIHESSMSRAQSPPVPARKNQLRAEEEKKNVIMELSEMRKQLRSEERRLQGRLLHLDSDDEIPMRKRERNPMDIFDMARHRVQAPVRRPSPKGLDATTFQNIHDFNELRERDSDTRVDLRLMYPDPPRDHHTLEIQQQALLREQQKRLNRIKMRRDAGADLDTICTDNAQGRRMPRDDTNDFLKNSLLESDSAFIGAYGETYPVIEDNAFPPPSQLPSARERRRNKLKGLDFDSSRLHTPQDGLSLKSISSVNVDQVRMRNEDRMRRLTEQQKKPTNTDDEGSLVDPDDIMRHLSDDGRNSAATEPWLRPGTSESLKRFMAEHLNEEQHKGPGKPGTFTWQGLSAAHA
Regarding B1, the binding entry is listed as “binds”.

B2: CEP104 (IMCD3 cells) (protein, UniProt Q80V31 1-926)
chain: MPHKIGFVVVSSSGHEDGFSARELMIHAPTVSGWRSPKFCQFPQEIVLQMVERCRVRKLQLLAHQYMISSKVEFYISESLPEYLVPYQAERFRRLGYVSLCDNEKTGCKARELKSVYVDAVGQFLKLIFHQNHANKYNIYNQVALVAINIIGDPADLGDESNITSREKLIDHYLGHSPHNPEDPALDGTFSGRSDYISPLDDLAFDMYQDPEVAQIIRRLDERKREAVKKERYDHAKKLKQAIADLQKVGERLGRYEVEKRCAVEKEDYDLAKEKKQQMARYRAQVYEQLELHGLLQGEPEMQRPFALPLQPLASPSSPQHWKAVSSLPRTEKLVAEDSFAGPVLQEKPSASSPQHSAVDPSPPAAGHAPRSHTEVLPYDERPLPVTRKQLGEASAEAEVKEADSDVRRRGVAGEPEPLTEKALREASAAIDTLGEALVAGAYSKMWSCREDALLALYKKLMEMPVGTQKEDLKNMLRASVFLIRRAIKDIVASVFQASLKLLKMIITQYIPKHKLGKLDTTHCVERAFPLLLARAGDSSARLRVMALNFIQEMALFKEVKSLQLIPSYLVQPLKANASVHLAMSQVDLLARLLRDLGTESSGFTVDNVMKFAVSALEHRVYEVRETAVRIILDMYRQHPALTLEHLPPDDSATRRNLLYKAIFEGFAKIDGSVLPTEAEVRAQKRVATKEAEKQKKEEMKALQGQSGELRETQAGVQEKESEAVKLRNQDPQGRKAVLPDTPEIPANHFLDNLCIFCGERNESFTEEGLDLHYWKHCLMLTRCDHCRQVVEISSLTEHLLTECDRRDGFGKCPRCSEAIPKEELPGHIKTKECSPAKPEKVANHCPLCHENFAPGEEAWKVHLMGPAGCTMNLRKTHVLYKATAPQQGKGPAAAKSSTSAPKVGSKIPTPKGGLSKSSSRTYMRR
B2: the binding result is given as “binds”.

B3: LCA5 (IMCD3 cells) (protein, UniProt Q80ST9 1-704)
chain: MGERARSPDIEQGKKGGKHPYSHYSSDLGSSPQSSGPSSPVNTTPCASTREKNPKRHLSDNQVHHPTVRKVSPKAVPSKKGIRVGFRSQSLNREPLRKDPDIVTKRVLSARLLKINELQNEVSELQVKLAQLLKENKALKSLQYRQEKALNKFEDAENEISQLIHRHNNEITALKERLRKSQEKERATEKRVKETEGELFRTKFSLQKLKKISEARHLPERDDLAKKLVSAELKLDDTERKIKELSKNLELSTNSFQRQLLAERKRAFEAYDENKVLQKELQRLHHKLKEKEKELDIKNIYANRLPKSSPKKEKEIERKHVSCQSDFTDQCTKGVQTAEDFELEDFPFTAQTVLCYENRWDEPEYLSSYLEYQDLNKHGSEMLSSVLGQEGKYDEDEDPCSAKQEARKPESEWAREELDKVKGKSALLGRAEKLALEAGRFPTENYQAQSVDKFEDEAERLKTEMLLAKLNEINKELQDPQNLGRAPLPLLPNFESKLHSPDRSTRPYSFPESLDRSFNGQHLQDLSFLTPRGEGGSPGPIRSPGQIRSPAPLDEFSFGSYVPSFGKTLGKSNPPSQKSSLLDFQSNSSESPSKDSLDLMSRKEKKATLMEQLFGPSASNTSVSSKSTDPHFPAASRGDMDPLHFLSGDRNSRVREPGDEEEDLFLREGRSFNPNRHRLKHASNKPTVTAVDSVDEDIEEVTLR
As to B3, the binding result was “binds”.

B4: Tubulin Tyrosine Ligase Like 5 (IMCD3 cells) (protein, UniProt Q8CHB8 1-1328)
chain: MPVVMARDLEETASSSEDEDLANQEDHPCIMWTGGCRRIPVLVFHAEAILTKDNNIRVIGERYHLSYKIVRTDSRLVRSILTAHGFHEVHPSSTDYNLMWTGSHLKPFLLRTLSEAQKVNHFPRSYELTRKDRLYKNIIRMQHTHGFKAFHILPQTFLLPAEYAEFCNSYSKDRGPWIVKPVASSRGRGVYLINNPNQISLEENILVSRYINNPLLIDDFKFDVRLYVLVTSYDPLVIYLYEEGLARFATVRYDQGSKNIRNQFMHLTNYSVNKKSGDYVSCDDPEVEDYGNKWSMSAMLRYLKQEGKDTTALMAHVEDLIIKTIISAELAIATACKTFVPHRSSCFELYGFDVLIDNTLKPWLLEVNLSPSLACDAPLDLKIKASMISDMFTVVGFVCQDPAQRTSNRSIYPSFESSRRNPFQKPQRTRPLSASDAEMKNLVASAREKVPGKLGGSVLGLSMEEIKVLRRVKEENDRRGGFIRIFPTSETWEIYGSYLEHKTSMNYMLATRLFQDRGNPRRSLLTGRARVSTEGAPELKVESMNSKAKLHAALYERKLLSLEVRKRRRRSGRLRAMRPKYPVIAQPAEMNIKTETESEEEEEVGLDNDDEEQEASQEESAGSLGENQAKYTPSLTVIVENSPRDNAMKVAEWTNKGEPCCKIEAQEPESKFNLMQILQDNGNLSKVQARLAFSAYLQHVQIRLTKDSGGQTLSPSWAAKEDEQMELVVRFLKRASSNLQHSLRMVLPSRRLALLERRRILAHQLGDFIGVYNKETEQMAEKKSKKKLEEEEEDGVNAESFQEFIRQASEAELEEVLTFYTQKNKSASVFLGTHSKSSKNSSSYSDSGAKGDHPETIQEVKIKQPKQQQATEIHADKLSRFTTSSGKEAKLVYTNCSSFCSPAAVLLQRLPSSHLSSVITTSALSAGPGHHASLSQIPPAVPSLPHQPALLLSPVPDNAPPSIHSGTQNVSPAGLPRCRSGSYTIGPFSSFQSAAHIYSQKLSRPSSAKAAGSCHPHKHHSGIAKTQKEGEDVSLNRRYNQSLVTAELQRLAEKQAARQYSPASHISLLTQQVTNLNLASSVINRSSASTPPTLRPVISPSGPTWSIQPDLHASETHSSPPGSRSLQTGGFAWEGEVENNAYSKTTGVVPQHKYHPTAGSYQLHFALQQLEQQKLQSRQLLDQSRARHQAIFGSQTLPNSSLWTMNNGPGCRISSATTGGQKPNTLPQKVVAPPNSSTLVSKPASNHKQVLRKPASQRASKGSSAEGQLNGLQSSLNPAAFMPITNSTGSLEAPQVIFARSKPLPTQSGALATVIGQRKSKSVKSGTI
In the case of B4, the binding entry is recorded as “binds”.

B5: ARMC9 (IMCD3 cells) (protein, UniProt Q9D2I5 1-817)
chain: MGDILAHESELLGLVKEYLDFAEFEDTLKTFSKECKVKGKPLCKNVGGPLKKDSKSLVIQRDLVAAFDSGDQKAFFDLWEGHIPSSVRDTDSLAQKLEFYLHIHFAIYLLKYCRGRPDKQELDKRISYFKTYLETKGAALSQTTEFLPFYALPFVPNPMVHPSFKELFQDSWTPELKLKLEKFLALTFKANNTPKLLTIYKENGPNSKELLQQLHQQLVEAERRAMTYLKRYNKIQADYHNLIGVTAELVDSLEATVSGKMITPEYLQSVCVRLFSNQMRQSLAHSVDFTRPGTASTMLRASLAPEKLKDVPLLPSLDYEKLKKDLIWGSDRLKAFLLQALRWRLTTSHPGEQRETVLQAYISNDLLDCHSHNQRSVLQLLHSKSEAVRQYMARLINALASLAEGRLYLAQNTKVLRMLEGRLKEEDKDVITRENVLGALQKFSLRRPLQTAMIRDGLIFWLIDLLKDPDCLSDYTLEYSVALLMNLCLRSAGKNMCAKVAGLMLKVLSDLLGHENHEIQPYVNGALYSILSIPSIREEARAMGMEDILRCFIKEGNAEMIRQIEFIIKQLNSEDLLDGVLESDDDEDEDDEEDHDIMEADLDKDELIQPQLGELSGEKLLTTEYLGIMTNTGKARRKGPASVQWSGDEPLRRPVTPGGHRTGCPVLGDHLISPQNAQQARNGCLRAMPVAHPDDYKEGKPGVTGCGTSSSFMDHKPREWSPAGHQKSRLVPTAALGWPREMTQDPSSGHITREFVPAFTCKPQVPSTPETVEQNPLKAKALSLAPQFSSSGPQQASRPASTASSTRGLHSSQSIRK
Take B5: the binding result is “binds”.

The values above are taken from paper doi:10.1101/2022.04.10.487777.
